Reference: the supplement of paper PMC12819154, “High-throughput peptide-centric local stability assay extends protein–ligand identification to membrane proteins, tissues and bacteria” (Nature Structural & Molecular Biology, 2025)
The list shows a part of the results. Most entries show no effect beyond the scatter of the controls.

Sequences of proteins named here, by UniProt entry; tags and fusion partners are left off. A change or cut given only in a name is not applied to a line headed by its entry.
UniProt Q8R3B7, whole entry: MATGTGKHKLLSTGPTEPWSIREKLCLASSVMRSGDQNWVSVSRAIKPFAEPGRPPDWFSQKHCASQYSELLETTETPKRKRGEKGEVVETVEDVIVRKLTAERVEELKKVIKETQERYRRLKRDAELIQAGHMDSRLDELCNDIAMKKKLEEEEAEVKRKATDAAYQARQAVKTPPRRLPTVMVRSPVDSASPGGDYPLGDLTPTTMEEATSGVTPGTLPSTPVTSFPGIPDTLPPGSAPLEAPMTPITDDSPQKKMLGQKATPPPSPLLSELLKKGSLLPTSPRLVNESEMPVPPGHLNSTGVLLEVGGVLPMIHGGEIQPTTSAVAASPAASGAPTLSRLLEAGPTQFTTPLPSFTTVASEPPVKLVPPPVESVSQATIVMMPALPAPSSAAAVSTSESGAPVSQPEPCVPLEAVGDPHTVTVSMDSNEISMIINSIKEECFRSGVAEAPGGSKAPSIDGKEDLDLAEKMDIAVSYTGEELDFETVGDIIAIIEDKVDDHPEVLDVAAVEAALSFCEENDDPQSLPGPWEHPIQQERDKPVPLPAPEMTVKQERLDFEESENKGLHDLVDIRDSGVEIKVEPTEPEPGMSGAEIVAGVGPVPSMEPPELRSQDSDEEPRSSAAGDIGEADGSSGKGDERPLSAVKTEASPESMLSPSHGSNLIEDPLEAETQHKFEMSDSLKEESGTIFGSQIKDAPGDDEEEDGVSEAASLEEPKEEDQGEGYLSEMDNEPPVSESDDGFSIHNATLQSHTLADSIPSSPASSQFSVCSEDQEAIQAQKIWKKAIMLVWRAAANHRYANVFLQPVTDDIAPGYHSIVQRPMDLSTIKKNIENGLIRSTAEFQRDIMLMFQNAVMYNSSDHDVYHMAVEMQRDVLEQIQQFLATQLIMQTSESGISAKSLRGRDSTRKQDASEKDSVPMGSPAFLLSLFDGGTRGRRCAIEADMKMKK
UniProt Q8CHP8: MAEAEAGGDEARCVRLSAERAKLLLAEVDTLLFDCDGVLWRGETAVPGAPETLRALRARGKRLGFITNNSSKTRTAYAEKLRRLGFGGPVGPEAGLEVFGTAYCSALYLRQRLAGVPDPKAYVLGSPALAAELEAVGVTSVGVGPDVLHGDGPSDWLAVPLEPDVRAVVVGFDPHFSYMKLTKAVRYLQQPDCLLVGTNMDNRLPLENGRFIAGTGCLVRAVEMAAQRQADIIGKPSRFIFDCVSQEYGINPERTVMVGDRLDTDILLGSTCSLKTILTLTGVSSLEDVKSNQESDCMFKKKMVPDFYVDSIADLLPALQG
UniProt Q8JZV7: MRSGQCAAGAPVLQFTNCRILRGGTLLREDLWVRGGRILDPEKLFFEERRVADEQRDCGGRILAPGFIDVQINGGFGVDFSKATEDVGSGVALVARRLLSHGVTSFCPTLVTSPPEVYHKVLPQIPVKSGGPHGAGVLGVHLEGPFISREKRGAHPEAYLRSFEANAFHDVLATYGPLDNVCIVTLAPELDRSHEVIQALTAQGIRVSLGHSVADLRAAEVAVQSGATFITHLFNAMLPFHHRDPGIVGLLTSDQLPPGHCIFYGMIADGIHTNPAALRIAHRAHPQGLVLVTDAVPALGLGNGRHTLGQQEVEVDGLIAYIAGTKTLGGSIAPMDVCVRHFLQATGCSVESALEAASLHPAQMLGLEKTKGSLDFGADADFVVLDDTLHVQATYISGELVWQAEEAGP
UniProt Q8R5A3: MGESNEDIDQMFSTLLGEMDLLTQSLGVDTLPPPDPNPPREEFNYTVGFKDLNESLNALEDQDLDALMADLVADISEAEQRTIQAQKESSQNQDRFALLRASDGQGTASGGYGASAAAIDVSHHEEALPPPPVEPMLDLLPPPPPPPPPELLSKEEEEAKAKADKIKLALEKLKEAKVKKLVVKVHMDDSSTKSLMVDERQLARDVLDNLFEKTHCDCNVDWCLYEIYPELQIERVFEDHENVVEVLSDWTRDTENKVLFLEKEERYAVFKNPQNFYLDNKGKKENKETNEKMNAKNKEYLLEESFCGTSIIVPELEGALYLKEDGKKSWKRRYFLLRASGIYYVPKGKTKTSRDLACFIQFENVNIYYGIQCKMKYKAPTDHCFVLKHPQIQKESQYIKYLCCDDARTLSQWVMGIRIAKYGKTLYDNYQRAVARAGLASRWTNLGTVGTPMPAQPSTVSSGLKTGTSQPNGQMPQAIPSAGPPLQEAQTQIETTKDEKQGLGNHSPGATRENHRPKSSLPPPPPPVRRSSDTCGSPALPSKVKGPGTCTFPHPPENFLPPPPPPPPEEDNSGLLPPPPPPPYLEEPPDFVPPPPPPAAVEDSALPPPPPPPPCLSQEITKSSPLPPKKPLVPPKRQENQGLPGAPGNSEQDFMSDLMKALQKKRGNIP
UniProt Q8K5B2: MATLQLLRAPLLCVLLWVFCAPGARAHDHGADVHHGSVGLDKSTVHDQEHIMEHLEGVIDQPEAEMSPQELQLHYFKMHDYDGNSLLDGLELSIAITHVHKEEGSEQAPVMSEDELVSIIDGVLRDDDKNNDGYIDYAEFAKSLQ
UniProt Q8R3F5: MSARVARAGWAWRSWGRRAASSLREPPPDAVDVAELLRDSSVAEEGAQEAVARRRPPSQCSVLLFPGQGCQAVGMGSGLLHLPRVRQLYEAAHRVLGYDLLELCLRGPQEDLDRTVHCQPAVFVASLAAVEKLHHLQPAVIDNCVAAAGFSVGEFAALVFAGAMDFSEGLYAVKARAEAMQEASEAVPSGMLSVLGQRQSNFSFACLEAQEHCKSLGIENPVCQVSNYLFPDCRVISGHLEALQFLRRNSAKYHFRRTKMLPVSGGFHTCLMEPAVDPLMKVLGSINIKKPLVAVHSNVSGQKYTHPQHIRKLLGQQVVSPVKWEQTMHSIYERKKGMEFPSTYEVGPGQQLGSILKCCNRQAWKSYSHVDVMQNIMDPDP
UniProt Q8R2Y8: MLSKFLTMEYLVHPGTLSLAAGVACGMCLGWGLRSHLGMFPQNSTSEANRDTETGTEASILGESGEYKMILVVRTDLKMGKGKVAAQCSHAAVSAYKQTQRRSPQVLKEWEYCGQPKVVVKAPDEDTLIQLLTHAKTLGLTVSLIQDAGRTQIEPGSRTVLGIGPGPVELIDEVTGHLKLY
UniProt Q8R238: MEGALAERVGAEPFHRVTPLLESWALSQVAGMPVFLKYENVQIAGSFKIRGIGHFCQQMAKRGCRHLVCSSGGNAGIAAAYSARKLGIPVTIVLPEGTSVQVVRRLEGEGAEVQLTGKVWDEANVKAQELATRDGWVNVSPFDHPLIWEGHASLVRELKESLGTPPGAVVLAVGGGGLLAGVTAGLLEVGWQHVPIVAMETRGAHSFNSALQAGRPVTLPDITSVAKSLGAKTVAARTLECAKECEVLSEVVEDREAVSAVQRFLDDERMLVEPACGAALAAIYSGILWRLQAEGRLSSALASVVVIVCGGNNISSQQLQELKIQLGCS
UniProt Q8VCM7: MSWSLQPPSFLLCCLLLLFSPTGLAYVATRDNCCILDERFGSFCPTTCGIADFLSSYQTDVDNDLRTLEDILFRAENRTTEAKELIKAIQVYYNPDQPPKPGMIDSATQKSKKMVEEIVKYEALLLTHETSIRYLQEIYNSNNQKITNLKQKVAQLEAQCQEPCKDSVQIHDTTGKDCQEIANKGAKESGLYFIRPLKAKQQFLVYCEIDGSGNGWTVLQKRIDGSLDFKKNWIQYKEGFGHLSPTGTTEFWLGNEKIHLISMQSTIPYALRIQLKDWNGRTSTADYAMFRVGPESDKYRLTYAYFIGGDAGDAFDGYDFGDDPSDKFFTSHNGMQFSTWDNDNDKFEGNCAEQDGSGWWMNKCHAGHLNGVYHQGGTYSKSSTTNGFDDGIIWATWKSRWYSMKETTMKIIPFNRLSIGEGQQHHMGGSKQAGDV
UniProt Q8CHP6: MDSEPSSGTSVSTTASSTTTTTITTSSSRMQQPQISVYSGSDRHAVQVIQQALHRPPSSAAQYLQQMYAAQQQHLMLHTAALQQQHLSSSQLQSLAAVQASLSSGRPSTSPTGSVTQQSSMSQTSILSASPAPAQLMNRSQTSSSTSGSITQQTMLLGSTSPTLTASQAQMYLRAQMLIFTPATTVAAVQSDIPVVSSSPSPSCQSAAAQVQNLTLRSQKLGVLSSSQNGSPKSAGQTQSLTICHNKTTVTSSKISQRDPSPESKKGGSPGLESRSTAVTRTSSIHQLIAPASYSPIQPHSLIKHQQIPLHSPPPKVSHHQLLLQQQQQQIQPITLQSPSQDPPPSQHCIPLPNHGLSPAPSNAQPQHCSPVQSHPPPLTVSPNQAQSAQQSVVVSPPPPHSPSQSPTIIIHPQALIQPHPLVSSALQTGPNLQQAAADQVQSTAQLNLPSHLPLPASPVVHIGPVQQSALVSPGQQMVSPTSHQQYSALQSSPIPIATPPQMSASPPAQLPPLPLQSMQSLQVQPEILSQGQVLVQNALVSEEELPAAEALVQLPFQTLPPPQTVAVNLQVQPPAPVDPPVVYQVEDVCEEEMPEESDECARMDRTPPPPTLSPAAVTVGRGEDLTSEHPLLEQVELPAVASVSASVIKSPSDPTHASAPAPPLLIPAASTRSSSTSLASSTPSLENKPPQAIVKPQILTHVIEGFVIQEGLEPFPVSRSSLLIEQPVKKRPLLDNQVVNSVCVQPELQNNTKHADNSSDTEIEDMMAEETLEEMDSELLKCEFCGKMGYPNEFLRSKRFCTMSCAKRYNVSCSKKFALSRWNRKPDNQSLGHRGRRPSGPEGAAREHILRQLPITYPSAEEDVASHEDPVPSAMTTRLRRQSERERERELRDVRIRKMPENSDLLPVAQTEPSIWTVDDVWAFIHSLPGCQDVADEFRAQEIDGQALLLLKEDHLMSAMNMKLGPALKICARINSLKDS
UniProt Q8R1X6: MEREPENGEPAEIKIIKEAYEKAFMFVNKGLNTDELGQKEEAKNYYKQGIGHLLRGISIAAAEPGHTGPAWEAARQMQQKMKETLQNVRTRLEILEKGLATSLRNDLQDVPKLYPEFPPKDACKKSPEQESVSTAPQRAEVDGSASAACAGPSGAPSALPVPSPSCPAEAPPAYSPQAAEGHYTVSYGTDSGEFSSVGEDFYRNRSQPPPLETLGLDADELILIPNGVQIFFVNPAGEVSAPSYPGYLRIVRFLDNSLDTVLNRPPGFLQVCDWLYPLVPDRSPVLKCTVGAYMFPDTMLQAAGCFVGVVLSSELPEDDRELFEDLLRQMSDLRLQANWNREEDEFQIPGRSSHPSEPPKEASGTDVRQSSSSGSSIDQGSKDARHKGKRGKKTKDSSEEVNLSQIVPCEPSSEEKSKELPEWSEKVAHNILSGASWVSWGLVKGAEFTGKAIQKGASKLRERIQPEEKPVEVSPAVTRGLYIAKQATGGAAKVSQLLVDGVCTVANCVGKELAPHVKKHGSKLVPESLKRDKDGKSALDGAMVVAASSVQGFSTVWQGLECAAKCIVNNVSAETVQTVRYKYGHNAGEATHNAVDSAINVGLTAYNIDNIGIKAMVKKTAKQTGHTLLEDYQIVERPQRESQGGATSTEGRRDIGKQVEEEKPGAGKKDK
UniProt Q8R1J1: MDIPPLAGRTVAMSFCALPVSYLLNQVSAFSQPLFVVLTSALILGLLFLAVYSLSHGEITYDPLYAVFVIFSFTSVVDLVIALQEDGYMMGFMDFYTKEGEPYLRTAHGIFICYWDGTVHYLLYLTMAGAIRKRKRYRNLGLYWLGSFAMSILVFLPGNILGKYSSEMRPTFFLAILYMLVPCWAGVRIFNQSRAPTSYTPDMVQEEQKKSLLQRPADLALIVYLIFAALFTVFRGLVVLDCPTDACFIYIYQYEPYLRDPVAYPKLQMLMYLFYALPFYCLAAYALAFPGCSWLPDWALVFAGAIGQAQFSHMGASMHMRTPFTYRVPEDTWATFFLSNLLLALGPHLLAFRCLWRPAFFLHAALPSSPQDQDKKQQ
UniProt Q8R104: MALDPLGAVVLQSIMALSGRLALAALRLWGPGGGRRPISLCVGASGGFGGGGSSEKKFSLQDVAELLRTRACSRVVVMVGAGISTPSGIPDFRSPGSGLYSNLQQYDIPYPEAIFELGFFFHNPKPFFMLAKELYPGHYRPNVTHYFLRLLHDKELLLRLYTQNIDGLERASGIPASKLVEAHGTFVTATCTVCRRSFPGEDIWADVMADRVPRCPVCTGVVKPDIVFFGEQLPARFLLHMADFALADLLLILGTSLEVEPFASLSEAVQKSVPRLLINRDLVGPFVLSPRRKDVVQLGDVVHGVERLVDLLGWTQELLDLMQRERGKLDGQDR
UniProt Q8CGE8: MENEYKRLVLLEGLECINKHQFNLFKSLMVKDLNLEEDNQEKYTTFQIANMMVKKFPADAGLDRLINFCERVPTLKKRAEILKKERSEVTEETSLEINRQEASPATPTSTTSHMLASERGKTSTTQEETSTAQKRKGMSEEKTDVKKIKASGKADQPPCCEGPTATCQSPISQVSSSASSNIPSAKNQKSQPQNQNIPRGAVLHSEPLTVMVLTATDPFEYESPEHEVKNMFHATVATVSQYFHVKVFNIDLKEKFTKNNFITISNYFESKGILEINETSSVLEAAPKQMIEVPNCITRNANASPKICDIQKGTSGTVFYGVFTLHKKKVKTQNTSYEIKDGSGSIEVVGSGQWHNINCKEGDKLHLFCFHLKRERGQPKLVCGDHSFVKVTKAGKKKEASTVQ

Compound: CN[C@@H]1C[C@H]2O[C@@](C)([C@@H]1OC)n1c3ccccc3c3c4c(c5c6ccccc6n2c5c31)C(=O)NC4 [staurosporine]
Experiment: log2 fold change of pooled soluble protein (PISA), ligand vs vehicle (log2 ratio); higher = more thermally stabilized
Conditions: ligand concentration: 20 uM; assay format: PISA pool 52.9/55.5/58.6 C

Target	log2 fold change of pooled soluble protein
UniProt Q8K2Q9	-0.00798
UniProt Q8K3K8	0.00148
UniProt Q8R3B7	0.0966
UniProt Q8CHP8	-0.059
UniProt Q8R480	-0.195
UniProt Q8CJF7	0.145
UniProt Q8CIB6	-0.0231
UniProt Q8CHC4	0.117
UniProt Q8JZV7	0.0351
UniProt Q8JZR0	-0.146
UniProt Q8CGF5	0.0421
UniProt Q8R5A3	0.0336
UniProt Q8K5B2	0.116
UniProt Q8R3F5	0.0186
UniProt Q8R2Y8	0.0175
UniProt Q8R238	0.0118
UniProt Q8VBT0	0.0923
UniProt Q8VCM7	-0.125
UniProt Q8CHP6	-0.21

Target	log2 fold change of pooled soluble protein
UniProt Q8QZR1	0.0502
UniProt Q8CI51	-0.00198
UniProt Q8K394	-0.113
UniProt Q8CHY6	-0.106
UniProt Q8K0T0	-0.0395
UniProt Q8QZR3	-0.0451
UniProt Q8R1X6	0.189
UniProt Q8CIM7	0.234
UniProt Q8R1J1	-0.106
UniProt Q8R0F8	-0.00297
UniProt Q8JZX4	-0.234
UniProt Q8R059	-0.0281
UniProt Q8JZV9	0.0743
UniProt Q8K0H1	0.0323
UniProt Q8R104	-0.0116
UniProt Q8CGE8	0.0169
UniProt Q8CJH3	-0.189
UniProt Q8VC12	-0.0767

Reprinted from the entries so far for reference:
Target	log2 fold change of pooled soluble protein
UniProt Q8CGE8	0.0169
UniProt Q8CJH3	-0.189
